Measurements as given in publication doi:10.1101/2020.09.03.282103.

By UniProt entry, the sequences of proteins in these tests, tags left out. Where a name states a change or a piece, a line headed by the entry shows the natural chain unless it says otherwise.
UniProt P0DTD2, whole entry, stated change not applied: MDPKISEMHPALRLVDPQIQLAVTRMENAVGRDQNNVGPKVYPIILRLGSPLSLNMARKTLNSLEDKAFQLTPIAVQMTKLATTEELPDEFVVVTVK
UniProt Q13283, whole entry, stated change not applied: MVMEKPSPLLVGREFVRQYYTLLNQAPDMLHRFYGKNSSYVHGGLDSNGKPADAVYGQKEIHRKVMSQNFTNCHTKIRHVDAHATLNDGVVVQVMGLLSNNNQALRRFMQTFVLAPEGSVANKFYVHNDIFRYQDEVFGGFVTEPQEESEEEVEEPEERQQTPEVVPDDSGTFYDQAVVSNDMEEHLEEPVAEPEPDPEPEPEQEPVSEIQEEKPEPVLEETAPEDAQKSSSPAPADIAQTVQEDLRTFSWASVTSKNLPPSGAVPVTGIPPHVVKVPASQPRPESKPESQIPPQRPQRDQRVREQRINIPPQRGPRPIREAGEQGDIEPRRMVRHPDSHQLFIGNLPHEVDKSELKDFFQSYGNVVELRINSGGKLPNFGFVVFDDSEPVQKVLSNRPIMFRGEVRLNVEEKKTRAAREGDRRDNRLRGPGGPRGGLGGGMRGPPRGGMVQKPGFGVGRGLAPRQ

Assays:
Assay in all cases: proximity labelling
NSP9 (SARS-CoV-2) = NSP9 (SARS-CoV-2) (UniProt P0DTD1)
NSP16 (SARS-CoV-2) = NSP16 (SARS-CoV-2) (UniProt P0DTD1)
NSP4_Ct (SARS-CoV-2) = NSP4_Ct (SARS-CoV-2) (UniProt P0DTD1)
[1] = target: ORF9B_Ct (SARS-CoV-2), P0DTD2; conditions: remark: other sources report otherwise
[2] = target: ORF9B_Nt (SARS-CoV-2), P0DTD2; conditions: remark: other sources report otherwise
NSP6 (SARS-CoV-2) = NSP6 (SARS-CoV-2) (UniProt P0DTD1)
[3] = target: G3BP1 (miniTurbo host bait) (UniProt Q13283)

B1: TOB1 (protein, UniProt P50616 1-345)
chain: MQLEIQVALNFIISYLYNKLPRRRVNIFGEELERLLKKKYEGHWYPEKPYKGSGFRCIHIGEKVDPVIEQASKESGLDIDDVRGNLPQDLSVWIDPFEVSYQIGEKGPVKVLYVDDNNENGCELDKEIKNSFNPEAQVFMPISDPASSVSSSPSPPFGHSAAVSPTFMPRSTQPLTFTTATFAATKFGSTKMKNSGRSNKVARTSPINLGLNVNDLLKQKAISSSMHSLYGLGLGSQQQPQQQQQPAQPPPPPPPPQQQQQQKTSALSPNAKEFIFPNMQGQGSSTNGMFPGDSPLNLSPLQYSNAFDVFAAYGGLNEKSFVDGLNFSLNNMQYSNQQFQPVMAN
B1 was tested, and the binding (NSP9 (SARS-CoV-2)) was “binds”.

B2: IBTK (protein, UniProt Q9P2D0 1-1353)
chain: MSSPMPDCTSKCRSLKHALDVLSVVTKGSENQIKAFLSSHCYNAATIKDVFGRNALHLVSSCGKKGVLDWLIQKGVDLLVKDKESGWTALHRSIFYGHIDCVWSLLKHGVSLYIQDKEGLSALDLVMKDRPTHVVFKNTDPTDVYTWGDNTNFTLGHGSQNSKHHPELVDLFSRSGIYIKQVVLCKFHSVFLSQKGQVYTCGHGPGGRLGHGDEQTCLVPRLVEGLNGHNCSQVAAAKDHTVVLTEDGCVYTFGLNIFHQLGIIPPPSSCNVPRQIQAKYLKGRTIIGVAAGRFHTVLWTREAVYTMGLNGGQLGCLLDPNGEKCVTAPRQVSALHHKDIALSLVAASDGATVCVTTRGDIYLLADYQCKKMASKQLNLKKVLVSGGHMEYKVDPEHLKENGGQKICILAMDGAGRVFCWRSVNSSLKQCRWAYPRQVFISDIALNRNEILFVTQDGEGFRGRWFEEKRKSSEKKEILSNLHNSSSDVSYVSDINSVYERIRLEKLTFAHRAVSVSTDPSGCNFAILQSDPKTSLYEIPAVSSSSFFEEFGKLLREADEMDSIHDVTFQVGNRLFPAHKYILAVHSDFFQKLFLSDGNTSEFTDIYQKDEDSAGCHLFVVEKVHPDMFEYLLQFIYTDTCDFLTHGFKPRIHLNKNPEEYQGTLNSHLNKVNFHEDDNQKSAFEVYKSNQAQTVSERQKSKPKSCKKGKNIREDDPVRMLQTVAKKFDFSNLSSRLDGVRFENEKINVIAKNTGNKLKLSQKKCSFLCDVTMKSVDGKEFPCHKCVLCARLEYFHSMLSSSWIEASSCAALEMPIHSDILKVILDYLYTDEAVVIKESQNVDFICSVLVVADQLLITRLKEICEVALTEKLTLKNAAMLLEFAAMYSAKQLKLSCLQFIGLNMAALLEARSLDVLSDGVLKDLSEFYRKMIPAMDRRVITPYQDGPDISYLEVEDGDIFLKEEINMEQNHSETMFKKAKTKAKKKPRKRSDSSGGYNLSDIIQSPSSTGLLKSGKTNSVESLPELLTSDSEGSYAGVGSPRDLQSPDFTTGFHSDKIEAKVKPYVNGTSPVYSREDLKPWEKSPILKISAPQPIPSNRIDTTSSASWVAGSFSPVSPPVVDLRTIMEIEESRQKCGATPKSHLGKTVSHGVKLSQKQRKMIALTTKENNSGMNSMETVLFTPSKAPKPVNAWASSLHSVSSKSFRDFLLEEKKSVTSHSSGDHVKKVSFKGIENSQAPKIVRCSTHGTPGPEGNHISDLPLLDSPNPWLSSSVTAPSMVAPVTFASIVEEELQQEAALIRSREKPLALIQIEEHAIQDLLVFYEAFGNPEEFVIVERTPQGPLAVPMWNKHGC
In the case of B2, the binding (NSP16 (SARS-CoV-2)) is reported as “binds”.

B3: MOSPD2 (protein, UniProt Q8NHP6 1-518)
chain: MAENHAQNKAKLISETRRRFEAEYVTDKSDKYDARDVERLQQDDNWVESYLSWRHNIVDETLKMLDESFQWRKEISVNDLNESSIPRWLLEIGVIYLHGYDKEGNKLFWIRVKYHVKDQKTILDKKKLIAFWLERYAKRENGKPVTVMFDLSETGINSIDMDFVRFIINCFKVYYPKYLSKIVIFDMPWLMNAAFKIVKTWLGPEAVSLLKFTSKNEVQDYVSVEYLPPHMGGTDPFKYSYPPLVDDDFQTPLCENGPITSEDETSSKEDIESDGKETLETISNEEQTPLLKKINPTESTSKAEENEKVDSKVKAFKKPLSVFKGPLLHISPAEELYFGSTESGEKKTLIVLTNVTKNIVAFKVRTTAPEKYRVKPSNSSCDPGASVDIVVSPHGGLTVSAQDRFLIMAAEMEQSSGTGPAELTQFWKEVPRNKVMEHRLRCHTVESSKPNTLTLKDNAFNMSDKTSEDICLQLSRLLESNRKLEDQVQRCIWFQQLLLSLTMLLLAFVTSFFYLLYS
For B3, the binding (NSP4_Ct (SARS-CoV-2)) was “binds”.

B4: MAVS, Q7Z434 1-540 (protein)
chain: MPFAEDKTYKYICRNFSNFCNVDVVEILPYLPCLTARDQDRLRATCTLSGNRDTLWHLFNTLQRRPGWVEYFIAALRGCELVDLADEVASVYQSYQPRTSDRPPDPLEPPSLPAERPGPPTPAAAHSIPYNSCREKEPSYPMPVQETQAPESPGENSEQALQTLSPRAIPRNPDGGPLESSSDLAALSPLTSSGHQEQDTELGSTHTAGATSSLTPSRGPVSPSVSFQPLARSTPRASRLPGPTGSVVSTGTSFSSSSPGLASAGAAEGKQGAESDQAEPIICSSGAEAPANSLPSKVPTTLMPVNTVALKVPANPASVSTVPSKLPTSSKPPGAVPSNALTNPAPSKLPINSTRAGMVPSKVPTSMVLTKVSASTVPTDGSSRNEETPAAPTPAGATGGSSAWLDSSSENRGLGSELSKPGVLASQVDSPFSGCFEDLAISASTSLGMGPCHGPEENEYKSEGTFGIHVAENPSIQLLEGNPGPPADPDGGPRPQADRKFQEREVPCHRPSPGALWLQVAVTGVLVVTLLVVLYRRRLH
For B4, the binding [1] was “binds” and the binding [2] was “binds”.

B5: USP19 (enzyme, UniProt O94966 1-1318)
chain: MSGGASATGPRRGPPGLEDTTSKKKQKDRANQESKDGDPRKETGSRYVAQAGLEPLASGDPSASASHAAGITGSRHRTRLFFPSSSGSASTPQEEQTKEGACEDPHDLLATPTPELLLDWRQSAEEVIVKLRVGVGPLQLEDVDAAFTDTDCVVRFAGGQQWGGVFYAEIKSSCAKVQTRKGSLLHLTLPKKVPMLTWPSLLVEADEQLCIPPLNSQTCLLGSEENLAPLAGEKAVPPGNDPVSPAMVRSRNPGKDDCAKEEMAVAADAATLVDEPESMVNLAFVKNDSYEKGPDSVVVHVYVKEICRDTSRVLFREQDFTLIFQTRDGNFLRLHPGCGPHTTFRWQVKLRNLIEPEQCTFCFTASRIDICLRKRQSQRWGGLEAPAARVGGAKVAVPTGPTPLDSTPPGGAPHPLTGQEEARAVEKDKSKARSEDTGLDSVATRTPMEHVTPKPETHLASPKPTCMVPPMPHSPVSGDSVEEEEEEEKKVCLPGFTGLVNLGNTCFMNSVIQSLSNTRELRDFFHDRSFEAEINYNNPLGTGGRLAIGFAVLLRALWKGTHHAFQPSKLKAIVASKASQFTGYAQHDAQEFMAFLLDGLHEDLNRIQNKPYTETVDSDGRPDEVVAEEAWQRHKMRNDSFIVDLFQGQYKSKLVCPVCAKVSITFDPFLYLPVPLPQKQKVLPVFYFAREPHSKPIKFLVSVSKENSTASEVLDSLSQSVHVKPENLRLAEVIKNRFHRVFLPSHSLDTVSPSDTLLCFELLSSELAKERVVVLEVQQRPQVPSVPISKCAACQRKQQSEDEKLKRCTRCYRVGYCNQLCQKTHWPDHKGLCRPENIGYPFLVSVPASRLTYARLAQLLEGYARYSVSVFQPPFQPGRMALESQSPGCTTLLSTGSLEAGDSERDPIQPPELQLVTPMAEGDTGLPRVWAAPDRGPVPSTSGISSEMLASGPIEVGSLPAGERVSRPEAAVPGYQHPSEAMNAHTPQFFIYKIDSSNREQRLEDKGDTPLELGDDCSLALVWRNNERLQEFVLVASKELECAEDPGSAGEAARAGHFTLDQCLNLFTRPEVLAPEEAWYCPQCKQHREASKQLLLWRLPNVLIVQLKRFSFRSFIWRDKINDLVEFPVRNLDLSKFCIGQKEEQLPSYDLYAVINHYGGMIGGHYTACARLPNDRSSQRSDVGWRLFDDSTVTTVDESQVVTRYAYVLFYRRRNSPVERPPRAGHSEHHPDLGPAAEAAASQASRIWQELEAEEEPVPEGSGPLGPWGPQDWVGPLPRGPTTPDEGCLRYFVLGTVAALVALVLNVFYPLVSQSRWR
In the case of B5, the binding (NSP6 (SARS-CoV-2)) is reported as “binds”.

B6: KCTD9 (protein, UniProt Q7L273 1-389)
chain: MRRVTLFLNGSPKNGKVVAVYGTLSDLLSVASSKLGIKATSVYNGKGGLIDDIALIRDDDVLFVCEGEPFIDPQTDSKPPEGLLGFHTDWLTLNVGGRYFTTTRSTLVNKEPDSMLAHMFKDKGVWGNKQDHRGAFLIDRSPEYFEPILNYLRHGQLIVNDGINLLGVLEEARFFGIDSLIEHLEVAIKNSQPPEDHSPISRKEFVRFLLATPTKSELRCQGLNFSGADLSRLDLRYINFKMANLSRCNLAHANLCCANLERADLSGSVLDCANLQGVKMLCSNAEGASLKLCNFEDPSGLKANLEGANLKGVDMEGSQMTGINLRVATLKNAKLKNCNLRGATLAGTDLENCDLSGCDLQEANLRGSNVKGAIFEEMLTPLHMSQSVR
For B6, the binding (NSP6 (SARS-CoV-2)) was “binds”.

B7: UBAP2 (protein, UniProt Q5T6F2 1-1119)
chain: MMTSVSSDHCRGAREKPQISAAQSTQPQKQVVQATAEQMRLAQVIFDKNDSDFEAKVKQLMEVTGKNQDECIVALHDCNGDVNKAINILLEGNSDTTSWETVGCKKKNFAKENSENKENREKKSEKESSRGRGNNNRKGRGGNRGREFRGEENGIDCNQVDKPSDRGKRARGRGFGRGRGRGAGRFSTQGMGTFNPADYSDSTSTDVCGTKLVVWEAAQNGADEGTELASNTHNIAQDLSNKSSYGLKGAWKNSVEEWTTEDWTEDLSETKVFTASSAPAENHILPGQSIDLVALLQKPVPHSQASEANSFETSQQQGFGQALVFTNSQHNNQMAPGTGSSTAVNSCSPQSLSSVLGSGFGELAPPKMANITSSQILDQLKAPSLGQFTTTPSTQQNSTSHPTTTTSWDLKPPTSQSSVLSHLDFKSQPEPSPVLSQLSQRQQHQSQAVTVPPPGLESFPSQAKLRESTPGDSPSTVNKLLQLPSTTIENISVSVHQPQPKHIKLAKRRIPPASKIPASAVEMPGSADVTGLNVQFGALEFGSEPSLSEFGSAPSSENSNQIPISLYSKSLSEPLNTSLSMTSAVQNSTYTTSVITSCSLTSSSLNSASPVAMSSSYDQSSVHNRIPYQSPVSSSESAPGTIMNGHGGGRSQQTLDTPKTTGPPSALPSVSSLPSTTSCTALLPSTSQHTGDLTSSPLSQLSSSLSSHQSSLSAHAALSSSTSHTHASVESASSHQSSATFSTAATSVSSSASSGASLSSSMNTANSLCLGGTPASASSSSSRAAPLVTSGKAPPNLPQGVPPLLHNQYLVGPGGLLPAYPIYGYDELQMLQSRLPVDYYGIPFAAPTALASRDGSLANNPYPGDVTKFGRGDSASPAPATTPAQPQQSQSQTHHTAQQPFVNPALPPGYSYTGLPYYTGMPSAFQYGPTMFVPPASAKQHGVNLSTPTPPFQQASGYGQHGYSTGYDDLTQGTAAGDYSKGGYAGSSQAPNKSAGSGPGKGVSVSSSTTGLPDMTGSVYNKTQTFDKQGFHAGTPPPFSLPSVLGSTGPLASGAAPGYAPPPFLHILPAHQQPHSQLLHHHLPQDAQSGSGQRSQPSSLQPKSQASKPAYGNSPYWTN
For B7, the binding [3] was “binds”.

No constants are given. Whether binding was seen depends on the method and setting. In cells and extracts the contact can be indirect. A yes stands for co-enrichment or nearness to the bait. Other partners may have been found.
